This is an account of results in PubChem BioAssay AID1508600 (Functional Genomics Laboratory (NCATS/FGL), 2020).

Screen size: about 53,000 sequences; about 3,700 (7%) were called active.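 Rule for the calls: active = gene knockdowns whose robust z-score for IL-1 alpha signal is at least 2 or at most -2, so actives lie on both sides; inactive = the rest.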 The list shows a part of the results.

The nature of the test: Components of the Cytosolic LPS Sensing Pathway: Gene Identification via Genome-wide siRNA Screen. To be noted: RAW264.7 macrophages, IL-1a HTRF, actives lie on both sides, screened at 100 nM (by protocol), cells primed 5 h with Pam3CSK4 first. An excerpt:
Non-canonical inflammasome activation by cytosolic LPS is a critical component of the host response to Gram-negative bacterial infection, however we lack a comprehensive understanding of the cellular processes that control this pathway. Here we describe a genome-wide siRNA screen to identify genes regulating the mouse macrophage IL-1 alpha response to cytosolic LPS.
RAW264.7 cells were maintained in complete DMEM media, comprising DMEM with 4.5 g/L glucose, 10% FBS (Gemini Bio-Products, West Sacramento, CA), 2 mM Glutamine (Lonza) and 20 mM HEPES (Lonza), hereafter complete DMEM.
The RNAi screen was conducted in 384-well format using the Ambion Silencer Mouse Genome siRNA Library (#4391425), which consists of three unique, nonoverlapping, nonpooled siRNAs for each of 17,000 gene targets. siRNA reagents ([…]) were stamped into 384-well white flat-bottom microplates (Corning, 3570) using a Velocity11 VPrep liquid handling system (Agilent) integrated into a BioCel robotic platform (Agilent) in columns 1-22, leaving columns 23-24 empty for negative (Ambion, Negative control #1) and positive (mouse Casp4) controls, respectively. The median value of each plate's negative control column was used to normalize sample wells, and the positive control was used to assess transfection efficiency and assay performance.
Lipofectamine RNAiMAX Transfection Reagent ([…]; Invitrogen) was added in […] serum-free, antibiotic-free media to plate wells using a Thermo Scientific Matrix WellMate and Microplate Stacker. Plates were incubated for 45 min at room temperature to allow for the sufficient formation of siRNA-lipid complexes. Cells were seeded at a density of 1x10^4 cells per well in 20 microL media containing 20% (vol/vol) FBS without antibiotics. The final concentration of siRNA in each well was 100 nM. Cells were cultured for 48h at 37 degrees C in 5% CO2 before addition of […] of TLR ligand Pam3CSK4 for 5 hours. The medium was then removed, replaced with […] growth media and cell were transfected with […] of LipidA and TransIT-TKO (Mirus) for 24 hour. At the end of the LipidA treatment, […] of supernatant was transferred to a 384 Greiner Bio-one non-binding low volume plate and […] of IL-1a HTRF reagent (Cisbio, 62MIL1APEH) was added and incubated at room temperature overnight. The plates were read on an EnVision plate reader (PerkinElmer). Cell viability was measured by adding 20ul Cell Titer Glo to the original plate and running a luminescence read on the EnVision. The quantified IL-1a signal for each siRNA gene-targeted well was divided by the median of the negative control wells and multiplied by 100 to achieve a negative control normalized value for each well/siRNA. This normalized value was then used to generate a robust z-score by first taking the log of each value and then by subtracting the median and dividing by the […].
On to GGAAAUAAUUCACUCACCATT against Eya1, for which the z-score is active: -2.99.

For the sequence CCACCCAUGAACUCACCAUTT against Pcbp1, the z-score is inactive: -1.99.

For the sequence GGAAAAAGAUGCUUUCACATT against Ccdc113, the z-score is inactive: -0.518.

As for CGUCACUGAGAGAUUCAAATT against Elmod1, the z-score was inactive: 0.965.

Regarding CCUGACAACUAACGAAGAUTT against Zdhhc18, the z-score was inactive: -0.254.

Consider CCUGCAUAUUGGAUUAAUATT against Alkbh5, for which the z-score is inactive: 0.0291.

As to GGCAACACACUGUCAUUUCTT against Il9, the z-score is inactive: -1.06.

GGCAGAGUCUCUUUCGAAGTT against Foxh1: the z-score is inactive: 0.358.

For the sequence GGCGACGAAGUCACCUAUATT against Carhsp1, the z-score is inactive: -0.0404.

As for CCUCUCCAUACUCACCAUGTT against Tspan17, the z-score is inactive: -0.473.

With GGCUCUUCUGUCACCUUCATT against Prr3, the z-score was inactive: 0.234.

Regarding GGCCUGAGCUGAUUGAGUATT against Actn4, the z-score is inactive: -0.402.

On to GGAGAAACAGAUUGAGCAGTT against Atp6v1e2, for which the z-score was inactive: 1.31.

CCGUGUAAGGUGUGGAGUGTT against Mcat: the z-score was active: -2.27.

On to GCUGGUAGAAUACUAAGUATT against Metrn, for which the z-score is inactive: 1.05.

GCUCUAGGGUCGUAAUGUUTT against Ralb: the z-score was active: -2.33.

With GGAGAGCUUUCUGAACUGUTT against Amigo2, the z-score is inactive: 1.05.

Regarding GCUAUGUCAUGGAAAGAAUTT against Pik3c2a, the z-score is inactive: -0.34.

Take GCAGAGUGUGGUUAGUGGGTT against Cobl: the z-score was inactive: -0.218.

Regarding GGGAGUCUGGUGGAUUGAUTT against Rln1, the z-score is inactive: 0.0253.

Regarding GGAUCAAGUUAUUUCUUACTT against Olfr1156, the z-score is inactive: -0.0277.

As for CCGACACGUUCUCAAUGUCTT against Gss, the z-score was inactive: -0.496.

In the case of GCACAGAUAUGAGAUCUGUTT against Wwtr1, the z-score is inactive: 0.564.

On to CGCAGGUGUAACACUCAUUTT against Ifitm3, for which the z-score is inactive: -0.918.

Regarding GGCUUUUGCUGCUAGAGGUTT against Szt2, the z-score was inactive: -1.19.

For GGCAGAAACCAACCAACACTT against Gm9734, the z-score was inactive: 1.46.

For GGAAAAAAGCAAGAAAGACTT against Tssk4, the z-score was inactive: -0.909.

As to GGUGACCACUUUAAACUUCTT against Znhit1, the z-score is inactive: -0.496.

Turning to GGACCAUUUGGUUAAUGCCTT against Fkbp3, the z-score is inactive: -1.19.

As for GGAGUGGAUGACAUGAUCCTT against Myo7b, the z-score was inactive: 0.806.

Take GGUCGGAGUACAGUUCAAATT against Pwwp3a: the z-score was inactive: 0.699.

As for CCAUAUAACUGCCAAUAAUTT against Ankrd7, the z-score was active: -2.02.

For the sequence GGACACAAGUUUUCAGAUCTT against Elmod2, the z-score is active: 3.02.

For the sequence “GGCAACUAUGAAAAAUAGUTT against 1700065D16Rik”, the z-score was inactive: -0.111.

GCGGGCUCACCAUAAUGCATT against Max: the z-score is inactive: 1.4.

In the case of GGAUGUCCGGAAGAUGUUUTT against Celf3, the z-score was inactive: -0.284.

With GGAAAAAUCCAGCACAUCCTT against Vps29, the z-score was inactive: 0.00562.

For GGAGAGCAAGGAAGUACUATT against Speer4b, the z-score is inactive: -1.62.

On to GGUGAAAGCAGCCAUUAAATT against Akr1a1, for which the z-score is inactive: -0.35.

GCCGCCAGUACUAUUCUAUTT against Tctn3: the z-score was inactive: 0.97.

As to GGAGACUCCAACUACUUCATT against Sycp1, the z-score is inactive: 1.23.

For the sequence GGAGUUUCACUACAGCCGGTT against Cdx1, the z-score was inactive: -0.879.

Take GGUCUACAGGCCUAUGUUGTT against Iba57: the z-score was inactive: 0.914.

Consider CCCAGGGAGAAUUGACUUGTT against Sertad1, for which the z-score was inactive: 0.0114.

GGUGAUCAACAGGAGUCUGTT against Rgs17: the z-score is inactive: -0.951.

With GGCUGAGACCUUUUGGUUGTT against Ccdc58, the z-score was inactive: 0.327.

For the sequence GCUUCGUGGCUUUUUAUGATT against Dlgap3, the z-score is inactive: -0.788.

As for GGGUAAAGUACAAUAAACUTT against Atp1b2, the z-score was inactive: 0.24.

For the sequence GGGUUUGACUGUACAGUACTT against Adamts4, the z-score was inactive: -1.29.

In the case of GGAGUCUAAUAAAACAAGATT against Ankrd16, the z-score was inactive: 1.17.

In the case of GCAGUUCACGCAGUGGAAGTT against Fam25c, the z-score was inactive: 1.3.

As for GGUAAAAGAUGAGAAAAACTT against Plekho1, the z-score was inactive: -0.523.

On to GGUUUAUUUAGCCUUGCUUTT against Dhx33, for which the z-score is inactive: 0.704.

Regarding GGACCCUUAGGAAAUGUGCTT against S100a10, the z-score was inactive: -1.13.

For the sequence CAAAAAUAUCUACAGAGUCTT against Olfr494, the z-score is inactive: 0.207.

Regarding GCGAACUACACUUACUACATT against Aqp12, the z-score was inactive: -0.525.

Take CGACAAUACUCUCUUCAAGTT against Fst: the z-score is inactive: 0.691.

On to GCGAUUGAGAAAGAAUGCGTT against Mrpl45, for which the z-score is inactive: 0.34.

As for CCACUGGUUCACCUAUAAUTT against Psma5, the z-score was inactive: 0.092.

As for CCAAUUGAGAAAAGUACAGTT against Lrp4, the z-score was inactive: -0.3.

With GGGUGAAUAAAACUUUGAATT against Haghl, the z-score is inactive: -0.457.

For the sequence CCUGCUUUGUAUCUCCUCCTT against Csprs, the z-score is inactive: 0.184.

For GCCCUACCUUACCUGAUACTT against Rab17, the z-score is active: 2.03.

Turning to GCAAAGUCCAGUGAACAACTT against Gtse1, the z-score is inactive: -1.15.

Take GCUAUGGGAUAUGAGCUGATT against Antkmt: the z-score is inactive: -0.75.

GGAACCAGGUAGCAGAUCUTT against Cdk2ap2: the z-score was active: -2.61.

As to GGUGGCCAUCAAAGUAAUCTT against Pim2, the z-score was inactive: 1.44.

Consider “GCAGUUCUCAUACUAUCAUTT against Arhgap33os”, for which the z-score is inactive: 1.6.
